Source: paper PMC8808184
Results are given in words; binding and its absence hold for the method and conditions named.

Target: E1 domain of human APLP1 (human) (UniProt P51693)
Assay: SEC; size-exclusion chromatography of the purified fragments; both purified

binding: no binding
B1: E1 domain of human APLP1 (domain or fragment, UniProt P51693 50-212)
chain: APGSAQVAGLCGRLTLHRDLRTGRWEPDPQRSRRCLRDPQRVLEYCRQMYPELQIARVEQATQAIPMERWCGGSRSGSCAHPHHQVVPFRCLPGEFVSEALLVPEGCRFLHQERMDQCESSTRRHQEAQEACSSQGLILHGSGMLLPCGSDRFRGVEYVCCPP
modifications: biotin (EZ-Link NHS-PEG4-Biotin, 1:1 molar ratio) where immobilised in BLI
